Experimental data reported in PubChem BioAssay AID2685 (National Center for Advancing Translational Sciences (NCATS), 2010).
This is one part of the list. Shown are side measurements of this screen, not its main read-out; they come without a call. The list favours compounds with an active or inconclusive main result. Words in brackets tell the shape of the fitted curve; partial curves, single points and poor fits give uncertain potencies.

Experiment: qHTS Assay for Lipid Storage Modulators in Drosophila S3 Cells;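 as to cell number change: cells counted by Cell Tracker Red CMTPX staining in the red channel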
Conditions: BODIPY lipid droplet fluorescence, 18-24 h; for cell number change: measured here: cell count max response, cells fed with added oleic acid
Method in brief: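 Laser-scanning cytometry quantifies lipid droplet accumulation (500–530 nm total intensity; droplet/cell object ratio) in oleic acid-fed (400 uM added) Drosophila S3 cells treated with a concentration series. 20 uM Triacsin C defined 100% inhibition.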

[1] = measured here: cell number channel AC50, cells fed with added oleic acid
[2] = measured here: lipid fluorescence (Fed channel) AC50, cells fed with added oleic acid

SMILES | cell number change [%] | AC50 [1] | AC50 [2]
O=C1C=C(c2cccc(CO)c2)C[C@@H](c2ccc(F)cc2)C1 | -31.7 | 3.66 µM [falling, single point] | 1.3 µM [rising, partial curve]
Cc1nnc(NC2CCCCC2)[nH]c1=O | -35.5 | 32.6 µM [falling, single point] | –
CCCCOc1cccc(/C=N/NC(=O)c2csc(C)c2C)c1 | -25 | – | 29.1 µM [falling, single point]
CSc1ncccc1C(=O)Nc1ncc(C)s1 | -2.7 | – | –
COc1ccc(Cn2c(=S)[nH]c3cc(C(=O)N4CCN(c5ccccc5)CC4)ccc3c2=O)cc1 | 8.97 | – | –
Cc1ccc(C2N(c3ccccc3)C(=O)N3CCCN23)cc1 (centres undefined) | -40.8 | 35.5 µM [falling, single point] | 15.8 µM [falling, partial curve, poor fit]
Cn1c(NCc2cccc(Br)c2)nc2ccccc21 | – | 3.26 µM [rising, partial curve] | 4.11 µM [rising, partial curve]
C1CNCCNCCCNCCNC1 | 4.46 | – | 10.3 µM [falling, partial curve]
CCOc1ccc(NC(=O)CCCN2C(=O)C(c3ccccc3)Oc3cccnc32)cc1 (centres undefined) | -23.6 | – | 29.1 µM [falling, single point]
C[C@@H](C(=O)NCCc1ccccc1)N1C(=O)N2CCc3c([nH]c4ccccc34)[C@@]2(C)C1=O | -40.4 | 29.1 µM [falling, single point] | –
COc1ccc(-n2cc(CNCCCn3ccnc3)c(-c3ccccc3Cl)n2)cc1 | 19.6 | – | 29.1 µM [rising, single point]
COCCNC(=O)c1nc2ccccc2s1 | 23.6 | – | 7.31 µM [rising, partial curve]
CCc1nnc(NC=C2C(=O)OC(C)(C)OC2=O)s1 | 8.32 | – | 5.8 µM [rising, partial curve, poor fit]
C=C(C)c1cccc(C(C)(C)NC(=O)NCc2ccc(OC)c(OC)c2)c1 | -37.1 | 11.6 µM [falling, partial curve] | 18.4 µM [falling, partial curve]
CCn1nc(C(=O)OCC(=O)Nc2nc(-c3ccc(OC)cc3)cs2)c2ccccc2c1=O | 44.8 | 2.31 µM [rising, full curve] | 0.82 µM [rising, full curve]
C1CCC2(CC1)C1=C(CCCC1)Nc1nnnn12 | -2.38 | – | –
CCOC(=O)N1CCC(Nc2c(Nc3ccc(C)c(C)c3)c(=O)c2=O)CC1 | 71.4 | 11.6 µM [rising, partial curve, poor fit] | 8.2 µM [rising, partial curve]
COc1ccccc1-c1ccc(=O)n(CC(=O)NCc2cccs2)n1 | -43.7 | – | –
Cc1nc(N2CCN(c3ccccn3)CC2)c2c(C)c(C(=O)N3CCN(c4ccc(F)cc4)CC3)sc2n1 | 5.13 | – | –
COc1ccc(-n2ccnc2SCC(=O)NC2CCCC2)c(OC)c1 | 18.8 | – | 5.17 µM [rising, single point]

Part of the list above, as tab-separated lines:
SMILES	cell number change [%]	AC50 [1]	AC50 [2]
COc1ccc(-n2cc(CNCCCn3ccnc3)c(-c3ccccc3Cl)n2)cc1	19.6	–	29.1 µM [rising, single point]
COCCNC(=O)c1nc2ccccc2s1	23.6	–	7.31 µM [rising, partial curve]

More records:

SMILES | cell number change [%] | AC50 [1] | AC50 [2]
COc1ccc(/C=N/OCC(=O)OCC(=O)N(C)c2ccccc2)cc1 | 3.2 | – | 0.00461 µM [rising, full curve, poor fit]
O=C(NCC(=O)N1CCN(c2ccccc2)CC1)c1ccc(Br)o1 | -12.5 | – | 29.1 µM [rising, single point]
CC(=O)CC(=O)Nc1cccc2c1CCCC2 | – | – | 0.116 µM [falling, single point]
O=C(CSc1nc(=O)n2ccccc2n1)NCCc1ccccc1 | 22.1 | – | –
Cc1ccc(Cl)cc1NC(=O)COC(=O)c1ccccc1O | -15.6 | – | 29.1 µM [falling, single point]
CC(Sc1nnc(Cc2cccs2)n1C1CCCCC1)C(N)=O (centres undefined) | 47.8 | 29.1 µM [rising, single point] | 2.06 µM [falling, partial curve]
COC(=O)c1c(C)nc(C)c2c(=O)oc3ccccc3c12 | -18.4 | – | 6.51 µM [falling, single point]
O=C(NCCCN1CCOCC1)C1CCN(S(=O)(=O)c2c(Cl)cccc2Cl)CC1 | 2.97 | 3.66 µM [rising, single point] | 6.51 µM [rising, single point]
O=C(CN1CCN(c2ccc(F)cc2)CC1)OCc1ccccc1 | – | – | 0.092 µM [falling, full curve, poor fit]
Nc1nnc(-c2ccccc2)s1 | 4.42 | 0.13 µM [falling, full curve, poor fit] | –
CN(CC(=O)Nc1cccc(F)c1)C(=O)/C=C/c1ccc2ccccc2n1 | -2.79 | – | –
COC(=O)c1ccccc1NC(=O)CN1CCCCC1 | -45.8 | 20.6 µM [falling, single point] | –
COc1cccc(-c2nnc(SCC(=O)N3CCCC3=O)n2-c2ccccc2)c1 | -7.84 | 6.51 µM [rising, single point] | –
O=C(NCCC1CCCCN1S(=O)(=O)c1cccs1)C(=O)Nc1ccc(F)cc1F (centres undefined) | -23.1 | – | 1.84 µM [falling, partial curve, poor fit]
CC(C)OCCCNC(=O)c1cccs1 | -31.4 | 18.4 µM [falling, single point] | 8.2 µM [falling, partial curve]
COc1ccc(S(=O)(=O)N2CCOCC2)cc1NC(=O)C1CCCN1C(=O)c1cccs1 (centres undefined) | -7.72 | – | 6.51 µM [rising, single point]
CCN(CC(=O)Nc1ccccc1C(F)(F)F)CC(=O)NC1CC1 | -32.3 | 2.91 µM [falling, full curve] | 9.2 µM [rising, partial curve]
CCCn1cc(CN2CCC(Oc3ccc(C(=O)N4CCCC4)cc3)CC2)c(C)n1 | 3.77 | – | –
CO/N=C(\CCC(=O)O)c1cccs1 | -2.03 | 5.8 µM [falling, single point] | –
Cc1ccc(S(=O)(=O)Cn2nnnc2C(c2ccccn2)N2CCN(c3ccccc3)CC2)cc1 (centres undefined) | 25.7 | 0.517 µM [rising, single point] | –
